No constants are given. Whether binding was seen depends on the method and setting. Binding seen in cells or lysates may run through a third protein. Some binding calls cover weakened binding; strength is not graded here. Sequences can lack the tags named with a protein.

Amino acid sequences for entries named in this document (tags omitted).
UniProt P20226: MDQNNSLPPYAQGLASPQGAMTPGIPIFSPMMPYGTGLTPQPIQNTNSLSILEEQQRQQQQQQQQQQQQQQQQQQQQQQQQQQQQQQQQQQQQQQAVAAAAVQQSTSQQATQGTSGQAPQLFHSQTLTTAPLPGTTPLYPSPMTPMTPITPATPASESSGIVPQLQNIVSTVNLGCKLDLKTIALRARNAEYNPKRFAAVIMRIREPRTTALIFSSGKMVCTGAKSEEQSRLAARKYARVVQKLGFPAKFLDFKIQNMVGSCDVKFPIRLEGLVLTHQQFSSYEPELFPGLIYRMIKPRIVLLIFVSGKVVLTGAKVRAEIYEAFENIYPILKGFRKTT

This assay concerns the target TBP-gfp (UniProt P20226). The experiment in a line: co-IP; non-denaturing cell lysates (IP/CO-IP kit, Abbkine), pre-cleared with protein A/G agarose beads; incubated with mouse anti-GFP, microspheres coupled with rabbit anti-FLAG, or rabbit IgG overnight at 4°C; washed four times with cold lysis buffer; Western blot. For orientation: In western blotting, separated proteins are transferred to a membrane and probed.

B1: MROH8-flag (protein, UniProt Q9H579 1-483)
chain: MSSKHRICSQEEVVIPCAYDSDSESVDLELSNLEIIKKGSSSIELTDLDIPDIPGLHCEPLSHSPRHLTQQDPLSEAIVEKLIQSIQKVFNGELKGELEKLKFLGDLSSLSQALPYDETAKSFIHSHIADIVHTLNVLVQEERPHSLSSSMRQEVFVTIADLSYQDVHLLLGSEDRAELFSLTIKSIITLPSVRTLTQIQEIMPNGTCNTECLYRQTFQAFSEMLQSLVVKDPHLENLDTIIKLPLRFQRLGHLVALMALLCGDPQEKVAEEAAEGIHSLLHITLRLKYITHDKKDQQNLKRALTKCREFLELHSSAAKCFYNCPFRIAQVFEGFLDSNELCQFIMTTFDTLKTLKHPCIQRSAGELLLTLAKNTESQFEKVPEIMGVICAQLSIISQPRVRQQIINTVSLFISRPKYTDIVLSFLLCHPVPYNRHLAEVWRMLSVELPSTTWILWRLLRKLQKCHNEPAQEKMAYVAVAVSP
For the molecule B1, the binding result was “binds”.

Source of the values: publication PMC11634154.
